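Viability assay of Plasmodium falciparum sporozoites; the read-out is not stated. The concentration is filed as 10 mM, unlikely as a test dose, so the dose is not known. Direction is inferred from retests: higher values go with lower viability. Strong results were mostly tested again. About 34,000 compounds were tested under these conditions; 0.84% (about 280) showed 50% or more at least once.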

Results are given as percent effect. The controls that fix the scale are not given in the record; negative values are as filed. Compounds were drawn at random from those tested, without regard to their results. Two or more numbers in one place are separate tests of the same structure; such repeats can differ widely.

| # | structure | Percent Effect |
|---|---|---|
| 1 | `[H][C@]12CCN(C(C)=O)CC[C@@]1([H])S(=O)(=O)N(CC)C2` | 6.36% |
| 2 | `COc1ccc2c(c1)CN(C)C(=O)CCN2CC(O)C(F)(F)F` (stereo unspecified) | -28.61% |
| 3 | `CCOCc1cc(CNC2CCCc3c2cnn3CC)ccc1OC` (stereo unspecified) | -0.3615% |
| 4 | `CC(C)(C)c1nnc(CN2CCN(S(C)(=O)=O)CC2)o1` | -8.118% |
| 5 | `O=C(Cn1cc(Cl)cn1)N1CCCC(c2ccn[nH]2)C1` (stereo unspecified) | 10.07% |
| 6 | `COCCS(=O)(=O)NC(=O)c1nnn(-c2ccc(F)cc2)c1C1CC1` | 13.06% |
| 7 | `O=C(CCC1CCCC1)N1CCC(c2cc3ncccc3c(O)n2)CC1` | -6.139% |
| 8 | `Cc1nc(CN2CCN(C(=O)c3c(C)noc3C)CC2)cs1` | -4.153% |
| 9 | `CN1CCN(C2CCN(Cc3nnc(C(C)(C)C)o3)CC2)C1=O` | 7.245% |
| 10 | `COCCC(=O)N1CCC2(CC1)CC(c1ccccc1)CN(C)C2` (stereo unspecified) | 4.678% |
| 11 | `CCc1nc(CN2CCCC(NCc3nnc(C4CC4)n3C)C2)no1` (stereo unspecified) | 2.551% |
| 12 | `Cc1cccc(CN2CCN(C(=O)c3cc(C4CC4)[nH]n3)CC2)c1` | 4.588% |
| 13 | `CCN(Cc1cccc2c1OCO2)C(=O)NC1CC1` | 4.622% |
| 14 | `O=C(O)C(F)(F)F.O=C(O)C(F)(F)F.[H][C@@]12CCN(Cc3ccoc3)C[C@@]1([H])[C@H](C(=O)NCc1ccccn1)CCO2` | 4.8% |
| 15 | `Cc1nc(CN2CCCN(C(=O)CCc3ccco3)CC2)cs1` | 8.525% |
| 16 | `CN(Cc1ccco1)C1CCC12CCN(C(=O)c1ccco1)CC2.O=C(O)C(F)(F)F` (stereo unspecified) | -3.935% |
| 17 | `OCC1CCCN1c1cc(N2CCC(OC3CCCC3)CC2)ncn1` (stereo unspecified) | -3.699% |
| 18 | `CCN(Cc1nc(C(C)C)no1)Cc1cccs1` | 10.91% |
| 19 | `Cc1ncc(C(=O)NC2CCc3nccn3C2)c(C(C)C)n1` (stereo unspecified) | -1.19% |
| 20 | `Cc1ccc(C(F)(F)F)cc1NC(=O)C1CCCN1` (stereo unspecified) | -3.571% |
| 21 | `CC(CN1CCC(c2ccccc2)CC1)n1cnc2ccccc21` (stereo unspecified) | -45.67% and -38.76% |
| 22 | `CC(=O)N(Cc1ncc(C(C)C)o1)C1CCN(CC2CCC2)C1` (stereo unspecified) | 12.06% |
| 23 | `CCc1nnc2n1CCN(C(=O)CN(CC)CC)C2` | -1.278% |
| 24 | `CS(=O)(=O)N1CC2(CCN(C(=O)c3csnn3)CC2)c2ccccc21` | 6.217% |
| 25 | `CCc1cc(NCCc2cccnc2)n2nc(C)c(C)c2n1` | -5.857% |
| 26 | `N#Cc1ccc(OCC(=O)N2CCCC(n3cccn3)C2)cc1` (stereo unspecified) | 4.236% |
| 27 | `Cc1noc(C(C)C)c1C(=O)NCCCN1CCC(C)CC1` | 0.9206% |
| 28 | `O=C(O)C(F)(F)F.[H][C@@]12CCN(CC3CCCCC3)C[C@]1(C(=O)N1CCOCC1)CCO2` | -0.2193% |
| 29 | `CCCn1nc2c(cc1=O)CN(CCN1CCCC1=O)CC2` | -0.5795% |
| 30 | `O=S1(=O)NC(C2CCCN(S(=O)(=O)N3CCCC3)C2)=Nc2ccccc21` (stereo unspecified) | 3.529% |
| 31 | `CC(O)CN1CCN(Cc2csc(-c3cnn(C)c3)n2)CC1` (stereo unspecified) | 8.176% |
| 32 | `CC(CS(C)(=O)=O)N(C(=O)Nc1cc(F)ccc1Cl)C1CC1` (stereo unspecified) | -2.971% |
| 33 | `COCCN1CCN(c2ccc3ccc(C(=O)NC4CC4)cn23)CC1` | 5.342% |
| 34 | `COCCN(C)c1ccc(NCc2cscn2)nc1` | 95.11% and 93.26% |
| 35 | `CNC(=O)CC1CC2(CCNCC2)c2cc(F)ccc21` (stereo unspecified) | 2.194% |
| 36 | `Cc1occc1C(=O)NCC1OCCc2cn(C)nc21.O=C(O)C(F)(F)F` (stereo unspecified) | -10.7% |
| 37 | `COc1ccc(C(CNC(=O)Nc2cn[nH]c2)N2CCOCC2)cc1` (stereo unspecified) | -12.02% |
| 38 | `CN(Cc1cc(C2CC2)on1)C(=O)CN1CC(c2ccccc2)CC1=O` (stereo unspecified) | -14.79% |
| 39 | `CC(Cn1cccn1)NC(=O)Nc1nccs1` (stereo unspecified) | 7.032% |
| 40 | `CCc1nccn1C1CCCN(C(=O)CCc2nc(C(C)C)no2)C1` (stereo unspecified) | 4.961% |
| 41 | `Cc1ncc(C(=O)NCCNc2ncnc3sccc23)s1` | -13.28% and -11.51% |
| 42 | `CCc1nc(CN2CCCN(C(=O)C3CCC3)CC2)cs1` | 16.08% |
| 43 | `c1ccc(Cc2nnc(CN3CCOC(Cn4cccn4)C3)o2)cc1` (stereo unspecified) | 2.465% |
| 44 | `CCc1csc(C2CCCN(C(=O)c3c[nH]c(C)n3)C2)n1` (stereo unspecified) | -10.47% |
| 45 | `CC1CCCCN1c1nc2c(c(=O)[nH]1)CCN(Cc1ccc(O)cc1)C2` (stereo unspecified) | -9.54% |
| 46 | `O=C(c1cccc(Cl)c1)C1CCCN(c2nnc(C3CCC3)o2)C1` (stereo unspecified) | 4.491% |
| 47 | `O=C(O)C(F)(F)F.O=C(O)C(F)(F)F.[H][C@@]12CN(C(=O)c3ccsc3)C[C@]1([H])OCCN2CCN(C)C` | -0.5199% |
| 48 | `Nc1nccc(C2CN(Cc3ccc(-c4ccccc4C(=O)O)o3)C2)n1` | -5.446% |
| 49 | `CN(C)Cc1ccc(C2CCCCN2C(=O)c2cccnn2)cc1` (stereo unspecified) | 0.1103% |
| 50 | `O=C1CCC2(CCN(Cc3ccsc3)CC2)N1Cc1ccccc1` | 17.25% |
| 51 | `CCn1cnnc1CNC(=O)c1cc(F)ccc1OC` | -5.989% |
| 52 | `CNC(=O)c1ccc(C2CN(C(=O)c3coc(C)n3)CCO2)nc1` (stereo unspecified) | -2.065% |
| 53 | `CCc1nccn1C1CCCN(C(=O)CCCc2ccccn2)C1` (stereo unspecified) | 8.305% |
| 54 | `O=C(O)C(F)(F)F.O=C(O)C(F)(F)F.[H][C@]12CCN(C(=O)CC(C)C)CC[C@@]1([H])S(=O)(=O)CCN2Cc1cccnc1` | -14.82% |
| 55 | `Cc1nnc(N2CCC(CS(N)(=O)=O)CC2)c(C#N)c1C` | 3.699% |
| 56 | `Cc1nc2c(cc1C(=O)Nc1ccccc1Cl)c(=O)n(C)c(=O)n2C` | -17.38% |
| 57 | `CCOc1cc(C)nc(N2CCN(C(=O)Cn3cc(C)cn3)CC2)n1` | 13.92% |
| 58 | `COc1ccc(OCc2cc(C(=O)N3CCSCC3)n[nH]2)c(Cl)c1` | -5.857% |
| 59 | `COc1c(CNC2CCN(CC(=O)NC3CC3)CC2)c(C)nn1C` | -11.36% |
| 60 | `Cc1nc(C)n(C2CCCN(C(=O)c3ccc4c(c3)COC4)C2)n1` (stereo unspecified) | -8.104% |
| 61 | `Nc1ccc(CC2CCCN(Cc3c[nH]cn3)C2)nn1` (stereo unspecified) | -0.5754% |
| 62 | `COCCNc1nc(C2CCCC2)nc2c1CCNCC2` | 10.47% |
| 63 | `CCOc1ccc(Cl)c(C(=O)N2CCN(c3cnccn3)CC2)n1` | -5.56% |
| 64 | `Cc1nc(C)n(CC2CCCN2CCCc2nc3ccccc3o2)n1` (stereo unspecified) | 7.671% |
| 65 | `O=C(c1cocn1)N1CCC[C@]2(C[C@@H](OCC3CC3)CO2)C1` | 0.7732% |
| 66 | `[H][C@@]12CCN(C(=O)NC)CC[C@]1(C(=O)Nc1ccccc1)CCN2C` | -12.18% |
| 67 | `Cc1cc(C)n(CC2CCCN2C(=O)Cc2c(C)nc(C)[nH]c2=O)n1` (stereo unspecified) | 5.344% |
| 68 | `Cc1cc(C[C@@H]2COC[C@@H]2NC(=O)CN2CCCC2)on1` | 0.3542% |
| 69 | `O=C(C1CNCCO1)N1CCC(c2cc(N3CCCC3)ncn2)CC1` (stereo unspecified) | 1.053% |
| 70 | `Cc1ccnc(NC(=O)CCNC(=O)c2ccccc2Cl)c1` | 67.45% and 43.1% |
| 71 | `CCN(CC1CCOC1)C(=O)Nc1ccc(N2CCOCC2)nc1` (stereo unspecified) | 24.78% |
| 72 | `Fc1cccc(CN2CCC(c3noc(-c4cnccn4)n3)CC2)c1F` | -3.746% |

The first 8 entries again:

structure,Percent Effect
[H][C@]12CCN(C(C)=O)CC[C@@]1([H])S(=O)(=O)N(CC)C2,6.36%
COc1ccc2c(c1)CN(C)C(=O)CCN2CC(O)C(F)(F)F (stereo unspecified),-28.61%
CCOCc1cc(CNC2CCCc3c2cnn3CC)ccc1OC (stereo unspecified),-0.3615%
CC(C)(C)c1nnc(CN2CCN(S(C)(=O)=O)CC2)o1,-8.118%
O=C(Cn1cc(Cl)cn1)N1CCCC(c2ccn[nH]2)C1 (stereo unspecified),10.07%
COCCS(=O)(=O)NC(=O)c1nnn(-c2ccc(F)cc2)c1C1CC1,13.06%
O=C(CCC1CCCC1)N1CCC(c2cc3ncccc3c(O)n2)CC1,-6.139%
Cc1nc(CN2CCN(C(=O)c3c(C)noc3C)CC2)cs1,-4.153%

Measurements from “University of Dundee, Small-Polar-MMV Screening Library” (2021), ChEMBL document CHEMBL3988442.